From PMC12040169 (PLOS Biology, 2025)
Some of the results follow.

test system: T1, CTL2-GFP (C. trachomatis L2/434/Bu, GFP-expressing); parameters: species or system HeLa; Intracellular C. trachomatis growth in HeLa cells, bulk GFP fluorescence relative to DMSO; conditions: bulk GFP, single well; 28.5 h, 10 µM; inhibitor
T1 construct: L2/434/Bu, GFP-expressing

Row | Structure (SMILES) | % of control remaining [%]
1 | Cc1cc(C)n(-c2ccc3nnc(CCCC(=O)O)n3n2)n1 [CBK307630] | 119.108
2 | O=C(c1cc(F)cc(F)c1)N1CCC(c2n[nH]c3ncccc23)CC1 [CBK284909] | 118.39
3 | Cc1cc(=O)oc2cc(OC(C)C(=O)Nc3sc4c(c3C(N)=O)CCCC4)ccc12 (stereo not shown) [CBK268050] | 99.592
4 | CC(C)Nc1nccnc1Sc1cccc(O)c1 [CBK093725] | 89.4559
5 | c1ccc2c(c1)CCC[C@H]2Oc1cncc(N2CCNCC2)n1 [CBK172388G] | 126.056
6 | O=[N+]([O-])c1ccccc1NC1OCC(O)C(O)C1O (stereo not shown) [CBK262032] | 118.143
7 | Cc1cccn2c(=O)cc(CN3CCc4c(nc(C5CC5)n4C)C3)nc12 [CBK305256] | 85.8542
8 | CN(C)c1ccc(-n2ccn(S(=O)(=O)c3ccc4ccccc4c3)c2=O)cc1 [CBK106607] | 174.932
9 | C[N+]1([O-])CCN(c2nccn(CCOc3cc(F)c(F)cc3F)c2=O)CC1 [CBK081593] | 89.1319
10 | CC(C)c1ccc(/C=C/C(=O)N[C@H]2CC[C@H](O)CC2)cc1 [CBK149644] | 107.817
11 | O=C(c1nccs1)C1CCN(C(=O)c2ccccc2F)CC1 [CBK284174] | 123.006
12 | O=C(NC(Cc1ccccc1)C(O)c1nccs1)C1CC=CCC1 (stereo not shown) [CBK284763] | 99.0311
13 | C=C(C)CN1CCN(C(=O)C(CC)Oc2ccccc2F)CC1 (stereo not shown) [CBK282935] | 107.152
14 | CN(C)CCN(Cc1cccs1)Cc1cc(Cl)ccc1O [CBK282847] | 97.0144
15 | COc1ccc(CCNC(=O)CN2CCCCC2C)cc1 (stereo not shown) [CBK304827] | 101.254
16 | CN(CC(=O)Nc1ccn(Cc2cccnc2)n1)c1ccc(C#N)cn1 [CBK306105] | 87.7812
17 | NCCC(=O)N(CCc1cc(C(F)(F)F)cc(C(F)(F)F)c1)c1ccc(Oc2ccccc2)cc1 [CBK002998T] | 114.276
18 | O=C(Cc1cc(F)cc(F)c1F)Nc1ccc2[nH]ccc2c1 [CBK159686] | 135.291
19 | CCCS(=O)(=O)N1CCN(Cc2cc(Br)ccc2O)CC1 [CBK264165G] | 125.907
20 | CN1CCC(=NNC(=O)CCSc2ccc(Cl)cc2)CC1 [CBK020372] | 178.08
21 | Cc1ccccc1-n1c(=O)cc(N2CCN(c3ccc(F)cc3)CC2)[nH]c1=O [CBK287508] | 155.706
22 | COc1ccc(C(=O)CCCN2CC3CCC(NC(=O)Nc4ccc(F)c(F)c4)CC3C2)cc1 (stereo not shown) [CBK083514T] | 77.7409
23 | CN(C)CCNC(=O)c1cccc(-c2cncc(Nc3cccc(Cl)c3)n2)c1 [CBK065229] | 118.427
24 | CCOC(=O)C1CCN(S(=O)(=O)c2ccc(NC(C)=O)c(Cl)c2)CC1 [CBK043748] | 103.231
25 | Cc1ccccc1-c1ccccc1CC1(C(N)=O)CCN(C(=O)CCc2ccccc2)CC1 [CBK285725] | 123.153
26 | CC(C)CNC(=S)NNC(=O)CC(C)O (stereo not shown) [CBK266921] | 139.666

An excerpt of these results, as labelled records.
O=[N+]([O-])c1ccccc1NC1OCC(O)C(O)C1O (stereo not shown) [CBK262032]
  % of control remaining [%]: 118.143
Cc1cccn2c(=O)cc(CN3CCc4c(nc(C5CC5)n4C)C3)nc12 [CBK305256]
  % of control remaining [%]: 85.8542

Remaining list, next part

Row | Structure (SMILES) | % of control remaining [%]
27 | CC(C)N1CC[C@@H]2[C@H]1C(=O)NC[C@H](CCC(=O)NCc1ccccc1)N2C [CBK289027] | 139.839
28 | Nc1nc(CCC(=O)N2Cc3cnn(Cc4ccc(F)cc4)c3C2)cs1 [CBK307019] | 101.496
29 | O=C1CC2(CCN(C(=O)N3CCCC3)CC2)Oc2ccc(F)cc21 [CBK283597] | 144.272
30 | Fc1ccc(Oc2nccnc2N2CCN(Cc3ccc(Cl)c(Cl)c3)CC2)cc1 [CBK083007T] | 138.533
31 | O=C(C1CC2C=CC1C21CC1)N1CCN(c2nccs2)CC1 (stereo not shown) [CBK281640] | 124.722
32 | O=C(NCCCc1ccccc1)c1cccc(S(=O)(=O)N2CCCC2)c1 [CBK305024] | 85.9511
33 | O=C(c1ccco1)N1CCN(C(=O)C(c2ccccc2)c2ccccc2)CC1 [CBK144462] | 99.3491
34 | Cc1nn(C)cc1CNC(=O)c1cc2ncc(Br)cn2n1 [CBK304336] | 92.9436
35 | CC1CCCC(C)N1C(=O)Cn1ncc2cccn2c1=O (stereo not shown) [CBK283680] | 106.263
36 | O=C(NCCCn1ccnc1)c1cccnc1-c1nc2ccccc2s1 [CBK269939] | 117.815
37 | CCCNc1nccnc1-c1ccc(F)c(Cl)c1 [CBK037100] | 152.767
38 | COc1ccc(Cl)cc1CN(C)C(=O)c1cc(C(C)C)n2ncnc2n1 [CBK307331] | 134.793
39 | Cc1cc(C(=O)NC(Cc2ccncc2)C2CC(O)C2)c(C)o1 (stereo not shown) [CBK307181] | 149.26
40 | O=C(Nc1ccccc1C(=O)N1CCCC1)c1ccccc1CCc1ccccc1 [CBK268608] | 103.397
41 | CC(C)(C)c1ccc(-n2cc(-c3ccc(Cl)cc3)nn2)cc1 [CBK113031] | 106.237
42 | COC(=O)c1cc(C)nc2sc(C)c(N)c12 [CBK115343] | 119.051
43 | CCCN1CCC(N2CCN(CCO)CC2)CC1 [CBK261920] | 100
44 | CC(C)(O)C#Cc1ccc(C(=O)NCCC(=O)O)s1 [CBK267704] | 121.419
45 | CCCn1cc(NC(=O)C2(c3ccccc3)CCC2)ccc1=O [CBK306237] | 114.659
46 | O=C(NC(=O)c1ccc(F)c(Cl)c1)Nc1nnc(C(F)(F)F)s1 [CBK076830] | 89.1534
47 | COC[C@H](C)Nc1ccc(C(=O)N2CCC(N3CCOCC3)CC2)cn1 [CBK306917] | 137.316
48 | CN(C)CCSc1cc(N2CCCC2)ncn1 [CBK105295] | 103.343
49 | CCc1nc2ccc(C(=O)NCc3cccs3)cn2c1N(C)CC [CBK145492] | 92.2219
50 | Nc1nc2c(nc(SCCc3ccccc3)n2C2OC(CO)C(O)C2O)c(=O)[nH]1 (stereo not shown) [CBK268686] | 109.564
51 | O=C(O)c1cccn1-c1cc(Cl)cc(Cl)c1 [CBK286932] | 124.222
52 | COCC(=O)N1CCN2C(=O)c3cc(-c4ccccc4F)ccc3NC(=O)[C@H]2C1 [CBK289587] | 142.523

Fetched by compound from the list above, 2 records:
Row | Structure (SMILES) | % of control remaining [%]
47 | COC[C@H](C)Nc1ccc(C(=O)N2CCC(N3CCOCC3)CC2)cn1 [CBK306917] | 137.316
50 | Nc1nc2c(nc(SCCc3ccccc3)n2C2OC(CO)C(O)C2O)c(=O)[nH]1 (stereo not shown) [CBK268686] | 109.564
